Experimental data as given in paper PMC11201590, “Enhancing Selective Antimicrobial and Antibiofilm Activities of Melittin through 6-Aminohexanoic Acid Substitution” (Biomolecules, 2024).

Tested on: sheep red blood cells (sRBCs)
Test: Hemolytic activity
Type: cell-based
Details: ratio of HC10 to GM of the MIC

For `CC[C@H](C)[C@H](NC(=O)CN)C(=O)NCC(=O)N[C@@H](C)C(=O)N[C@H](C(=O)N[C@@H](CC(C)C)C(=O)N[C@@H](CCCCN)C(=O)N[C@H](C(=O)N[C@@H](CC(C)C)C(=O)N[C@H](C(=O)N[C@H](C(=O)NCC(=O)N[C@@H](CC(C)C)C(=O)N1CCC[C@H]1C(=O)N[C@@H](C)C(=O)N[C@@H](CC(C)C)C(=O)N[C@H](C(=O)N[C@@H](CO)C(=O)N[C@@H](Cc1c[nH]c2ccccc12)C(=O)N[C@H](C(=O)N[C@@H](CCCCN)C(=O)N[C@@H](CCCNC(=N)N)C(=O)N[C@@H](CCCCN)C(=O)N[C@@H](CCCNC(=N)N)C(=O)N[C@@H](CCC(N)=O)C(=O)N[C@@H](CCC(N)=O)C(N)=O)[C@@H](C)CC)[C@@H](C)CC)[C@@H](C)O)[C@@H](C)O)C(C)C)C(C)C` [Melittin], the “TI (HC10/GM), therapeutic index” value was 0.19.
